The values that follow come from ChEMBL document CHEMBL1126949 (J Med Chem, 1993).

Chains of the proteins cited; added tags and fusions are not shown.
UniProt P19020, whole entry: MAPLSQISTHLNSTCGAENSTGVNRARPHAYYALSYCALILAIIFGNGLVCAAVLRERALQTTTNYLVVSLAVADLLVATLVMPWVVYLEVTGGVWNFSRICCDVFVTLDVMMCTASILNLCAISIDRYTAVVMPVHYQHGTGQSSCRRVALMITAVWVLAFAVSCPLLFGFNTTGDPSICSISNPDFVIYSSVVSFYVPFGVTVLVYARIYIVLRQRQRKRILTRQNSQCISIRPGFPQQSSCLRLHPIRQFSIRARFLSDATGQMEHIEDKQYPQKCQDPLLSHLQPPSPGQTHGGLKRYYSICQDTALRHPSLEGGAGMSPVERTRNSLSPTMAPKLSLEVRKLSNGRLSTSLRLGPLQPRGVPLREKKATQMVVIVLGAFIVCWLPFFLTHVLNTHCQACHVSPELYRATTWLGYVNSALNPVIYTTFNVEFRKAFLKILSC

The term Ki denotes a dissociation constant, usually derived from enzyme kinetics or from competition with a known ligand. Higher therefore signals weaker binding.

The assay deals with D(3) dopamine receptor (Rattus norvegicus, UniProt P19020). Briefly: biochemical.

In turn, `CC(C)NCC(O)COc1cccc2ccccc12` (racemic) [PROPRANOLOL] gave a Ki above 5 µM. `C=CCN1CC[C@]23c4c5ccc(O)c4O[C@H]2C(=O)CC[C@@]3(O)[C@H]1C5` [NALOXONE]: the Ki is above 20 µM.
